Where a name gives a salt, the structure may show the parent alone. Some of the results follow. The calls rarely recur for the same compound in another form.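 Kinases, fused to nanoluciferase, were expressed in K562 cells; luminescence was measured every 4 h from 2 to 18 h as percent of control (DMSO = 100%, positive control = 0%). A time point is decreased if signal falls significantly (2 sigma). Hits were called by the authors by a rule that is not shown; the count of time points alone does not decide it.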
Assays:
Assay in all cases: kinase-Nluc reporter destabilization hit call (1 = scored as downregulated) (binary); higher = compound decreases kinase abundance
Details in all cases: K562; 2-18 h
ABL1 = ABL1 (UniProt P00519)
AKT1 = AKT1 (UniProt P31749)
ALK = ALK (UniProt Q9UM73)
ARAF = ARAF (UniProt P10398)
AURKA = AURKA (UniProt O14965)
AURKB = AURKB (UniProt Q96GD4)
AURKC = AURKC (UniProt Q9UQB9)
BLK = BLK (UniProt P51451)
BMX = BMX (UniProt P51813)
BRAF = BRAF (UniProt P15056)
BRAF_V600E = test system: BRAF_V600E
BTK = BTK (UniProt Q06187)
CAMK2A = CAMK2A (UniProt Q9UQM7)
CAMK2G = CAMK2G (UniProt Q13555)
CDK10 = CDK10 (UniProt Q15131)
CDK2 = CDK2 (UniProt P24941)
CDK3 = CDK3 (UniProt Q00526)
CDK4 = CDK4 (UniProt P11802)
CDK5 = CDK5 (UniProt Q00535)
CDK6 = CDK6 (UniProt Q00534)

The chains behind the UniProt entries cited, without tags or fusion partners. Where a name states a change or a piece, a line headed by the entry shows the natural chain unless it says otherwise.
UniProt P31749: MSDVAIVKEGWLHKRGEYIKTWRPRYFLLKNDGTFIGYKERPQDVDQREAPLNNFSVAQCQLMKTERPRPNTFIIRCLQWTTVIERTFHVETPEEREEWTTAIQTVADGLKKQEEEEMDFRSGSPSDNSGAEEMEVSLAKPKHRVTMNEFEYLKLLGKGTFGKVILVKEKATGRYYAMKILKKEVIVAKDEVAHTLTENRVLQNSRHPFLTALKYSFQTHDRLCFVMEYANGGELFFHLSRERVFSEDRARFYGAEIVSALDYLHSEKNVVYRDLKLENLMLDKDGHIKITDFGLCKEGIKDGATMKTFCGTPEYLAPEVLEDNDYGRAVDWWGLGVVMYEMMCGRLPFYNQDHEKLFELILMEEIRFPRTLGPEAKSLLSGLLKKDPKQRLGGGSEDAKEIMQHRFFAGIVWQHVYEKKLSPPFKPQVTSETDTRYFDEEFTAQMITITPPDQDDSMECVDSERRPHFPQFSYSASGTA
UniProt P10398: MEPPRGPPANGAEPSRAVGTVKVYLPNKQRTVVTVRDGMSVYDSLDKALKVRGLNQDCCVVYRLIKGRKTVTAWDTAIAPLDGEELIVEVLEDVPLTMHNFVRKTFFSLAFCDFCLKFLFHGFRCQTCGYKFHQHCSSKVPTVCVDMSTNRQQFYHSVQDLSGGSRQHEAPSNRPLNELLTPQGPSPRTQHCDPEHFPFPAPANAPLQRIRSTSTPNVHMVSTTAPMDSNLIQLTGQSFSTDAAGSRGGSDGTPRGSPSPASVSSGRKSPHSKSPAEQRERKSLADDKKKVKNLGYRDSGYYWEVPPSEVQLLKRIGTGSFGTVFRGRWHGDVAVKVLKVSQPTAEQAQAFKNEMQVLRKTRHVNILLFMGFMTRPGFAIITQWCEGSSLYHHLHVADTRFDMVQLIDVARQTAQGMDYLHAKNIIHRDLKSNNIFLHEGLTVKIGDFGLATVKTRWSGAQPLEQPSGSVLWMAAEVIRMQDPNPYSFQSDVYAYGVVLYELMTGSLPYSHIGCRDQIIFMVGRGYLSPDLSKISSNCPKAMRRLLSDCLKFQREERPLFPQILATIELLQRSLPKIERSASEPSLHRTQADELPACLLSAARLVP
UniProt O14965: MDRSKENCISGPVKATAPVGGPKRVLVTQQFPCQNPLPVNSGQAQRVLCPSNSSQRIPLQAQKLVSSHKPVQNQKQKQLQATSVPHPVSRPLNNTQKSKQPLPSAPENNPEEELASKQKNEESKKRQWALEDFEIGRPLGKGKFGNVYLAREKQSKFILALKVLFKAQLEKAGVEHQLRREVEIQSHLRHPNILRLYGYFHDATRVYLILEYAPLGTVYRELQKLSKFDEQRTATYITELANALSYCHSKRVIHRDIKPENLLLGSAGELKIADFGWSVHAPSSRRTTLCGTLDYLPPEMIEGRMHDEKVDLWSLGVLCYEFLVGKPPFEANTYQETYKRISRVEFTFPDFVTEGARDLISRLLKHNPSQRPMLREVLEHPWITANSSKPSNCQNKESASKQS
UniProt Q9UQB9: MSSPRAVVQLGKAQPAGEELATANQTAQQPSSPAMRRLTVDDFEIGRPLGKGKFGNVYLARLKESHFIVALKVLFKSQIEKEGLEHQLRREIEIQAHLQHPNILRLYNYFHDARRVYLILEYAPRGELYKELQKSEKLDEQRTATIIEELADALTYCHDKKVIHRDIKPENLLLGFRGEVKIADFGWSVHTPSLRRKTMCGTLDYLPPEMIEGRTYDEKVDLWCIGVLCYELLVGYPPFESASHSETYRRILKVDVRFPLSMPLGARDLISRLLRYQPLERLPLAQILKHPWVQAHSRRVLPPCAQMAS
UniProt P51451: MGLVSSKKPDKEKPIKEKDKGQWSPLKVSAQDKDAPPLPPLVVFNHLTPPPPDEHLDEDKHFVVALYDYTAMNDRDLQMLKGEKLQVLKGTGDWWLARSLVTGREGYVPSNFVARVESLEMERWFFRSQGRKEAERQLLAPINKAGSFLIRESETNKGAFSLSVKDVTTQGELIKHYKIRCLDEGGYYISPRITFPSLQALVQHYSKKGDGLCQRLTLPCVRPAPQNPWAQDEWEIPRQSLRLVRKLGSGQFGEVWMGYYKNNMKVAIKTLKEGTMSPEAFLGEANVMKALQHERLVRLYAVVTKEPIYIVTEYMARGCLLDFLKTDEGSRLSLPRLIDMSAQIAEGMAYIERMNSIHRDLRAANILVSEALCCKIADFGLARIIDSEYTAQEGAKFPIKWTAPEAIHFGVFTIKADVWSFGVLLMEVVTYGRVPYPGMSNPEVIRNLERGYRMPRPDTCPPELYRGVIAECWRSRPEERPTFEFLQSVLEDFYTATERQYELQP
UniProt P15056, whole entry, looked up: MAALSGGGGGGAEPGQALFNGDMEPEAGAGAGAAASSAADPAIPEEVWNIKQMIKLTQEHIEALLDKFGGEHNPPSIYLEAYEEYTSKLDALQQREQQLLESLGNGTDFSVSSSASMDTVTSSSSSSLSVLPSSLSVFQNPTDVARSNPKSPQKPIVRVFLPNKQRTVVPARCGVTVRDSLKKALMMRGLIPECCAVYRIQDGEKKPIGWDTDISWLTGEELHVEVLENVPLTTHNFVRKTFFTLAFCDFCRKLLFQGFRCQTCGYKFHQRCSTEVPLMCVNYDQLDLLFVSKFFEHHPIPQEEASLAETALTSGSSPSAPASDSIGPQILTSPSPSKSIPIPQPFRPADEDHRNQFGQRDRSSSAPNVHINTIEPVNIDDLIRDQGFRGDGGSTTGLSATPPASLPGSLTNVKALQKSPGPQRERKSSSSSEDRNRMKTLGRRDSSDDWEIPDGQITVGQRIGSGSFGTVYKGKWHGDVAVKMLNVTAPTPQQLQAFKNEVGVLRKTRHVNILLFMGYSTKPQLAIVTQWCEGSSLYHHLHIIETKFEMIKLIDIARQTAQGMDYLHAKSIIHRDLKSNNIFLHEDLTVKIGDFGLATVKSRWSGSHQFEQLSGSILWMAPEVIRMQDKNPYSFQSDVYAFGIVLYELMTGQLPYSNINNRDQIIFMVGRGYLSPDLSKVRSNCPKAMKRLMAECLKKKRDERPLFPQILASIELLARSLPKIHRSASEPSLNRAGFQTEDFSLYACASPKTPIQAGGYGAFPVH
UniProt Q06187: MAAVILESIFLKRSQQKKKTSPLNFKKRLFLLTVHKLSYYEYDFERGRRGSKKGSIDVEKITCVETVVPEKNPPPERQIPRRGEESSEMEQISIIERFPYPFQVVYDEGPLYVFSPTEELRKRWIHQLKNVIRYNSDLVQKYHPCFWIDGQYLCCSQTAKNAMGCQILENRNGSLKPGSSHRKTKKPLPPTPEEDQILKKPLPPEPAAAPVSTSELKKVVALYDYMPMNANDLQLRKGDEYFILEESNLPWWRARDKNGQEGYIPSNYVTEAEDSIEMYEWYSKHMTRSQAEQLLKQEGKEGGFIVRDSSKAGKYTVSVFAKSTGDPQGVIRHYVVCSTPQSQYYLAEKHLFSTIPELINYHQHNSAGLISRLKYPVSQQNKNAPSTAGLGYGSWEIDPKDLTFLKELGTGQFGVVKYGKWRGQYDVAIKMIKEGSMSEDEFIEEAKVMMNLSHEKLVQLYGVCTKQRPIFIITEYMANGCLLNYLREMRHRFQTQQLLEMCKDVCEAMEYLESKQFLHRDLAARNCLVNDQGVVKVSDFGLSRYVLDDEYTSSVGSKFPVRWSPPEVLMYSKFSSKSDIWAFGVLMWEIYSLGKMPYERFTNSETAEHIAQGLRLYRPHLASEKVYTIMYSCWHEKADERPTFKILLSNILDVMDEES
UniProt Q9UQM7, whole entry: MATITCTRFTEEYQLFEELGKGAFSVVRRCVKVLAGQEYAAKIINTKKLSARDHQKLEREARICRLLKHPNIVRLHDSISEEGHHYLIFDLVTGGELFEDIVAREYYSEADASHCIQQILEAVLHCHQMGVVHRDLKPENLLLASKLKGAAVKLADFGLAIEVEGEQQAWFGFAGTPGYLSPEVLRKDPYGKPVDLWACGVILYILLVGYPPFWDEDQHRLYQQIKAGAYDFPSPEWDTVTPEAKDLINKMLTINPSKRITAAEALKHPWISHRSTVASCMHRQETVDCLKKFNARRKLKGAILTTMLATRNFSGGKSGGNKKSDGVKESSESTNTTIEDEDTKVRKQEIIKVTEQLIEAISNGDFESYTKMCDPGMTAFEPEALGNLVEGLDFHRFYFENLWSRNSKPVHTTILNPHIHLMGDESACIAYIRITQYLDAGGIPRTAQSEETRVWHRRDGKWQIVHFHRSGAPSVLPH
UniProt Q13555: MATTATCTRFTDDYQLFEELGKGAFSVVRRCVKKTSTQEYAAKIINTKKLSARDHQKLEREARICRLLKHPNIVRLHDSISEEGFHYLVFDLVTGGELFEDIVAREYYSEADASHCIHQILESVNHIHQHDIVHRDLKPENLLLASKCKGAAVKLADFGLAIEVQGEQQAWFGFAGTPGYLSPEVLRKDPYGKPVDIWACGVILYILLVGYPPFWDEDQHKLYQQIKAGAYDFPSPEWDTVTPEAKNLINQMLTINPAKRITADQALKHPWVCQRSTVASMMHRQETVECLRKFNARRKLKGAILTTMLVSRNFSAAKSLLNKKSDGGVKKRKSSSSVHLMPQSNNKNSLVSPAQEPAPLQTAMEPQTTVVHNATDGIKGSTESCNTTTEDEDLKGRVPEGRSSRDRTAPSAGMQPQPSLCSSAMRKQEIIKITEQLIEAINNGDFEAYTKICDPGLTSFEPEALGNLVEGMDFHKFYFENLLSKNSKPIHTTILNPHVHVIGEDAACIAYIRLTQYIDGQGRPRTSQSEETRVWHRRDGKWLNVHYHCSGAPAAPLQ
UniProt Q15131: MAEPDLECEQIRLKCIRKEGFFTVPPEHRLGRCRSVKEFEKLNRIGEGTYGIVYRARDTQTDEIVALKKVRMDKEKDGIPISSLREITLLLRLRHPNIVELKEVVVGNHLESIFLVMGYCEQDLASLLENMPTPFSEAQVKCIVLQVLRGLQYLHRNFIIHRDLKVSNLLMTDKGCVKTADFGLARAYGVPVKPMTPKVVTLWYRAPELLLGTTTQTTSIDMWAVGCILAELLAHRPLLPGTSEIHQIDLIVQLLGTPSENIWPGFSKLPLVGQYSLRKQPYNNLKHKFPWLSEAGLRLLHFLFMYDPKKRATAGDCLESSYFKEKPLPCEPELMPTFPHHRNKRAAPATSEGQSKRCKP
UniProt Q00526: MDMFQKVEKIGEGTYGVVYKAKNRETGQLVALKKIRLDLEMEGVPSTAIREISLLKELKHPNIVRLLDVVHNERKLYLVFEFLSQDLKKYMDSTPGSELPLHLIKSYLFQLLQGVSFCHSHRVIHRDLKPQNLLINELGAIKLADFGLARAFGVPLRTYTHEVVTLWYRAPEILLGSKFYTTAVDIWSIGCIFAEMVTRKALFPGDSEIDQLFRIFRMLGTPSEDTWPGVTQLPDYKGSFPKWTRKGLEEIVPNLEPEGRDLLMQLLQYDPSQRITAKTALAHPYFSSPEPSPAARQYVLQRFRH
UniProt P11802: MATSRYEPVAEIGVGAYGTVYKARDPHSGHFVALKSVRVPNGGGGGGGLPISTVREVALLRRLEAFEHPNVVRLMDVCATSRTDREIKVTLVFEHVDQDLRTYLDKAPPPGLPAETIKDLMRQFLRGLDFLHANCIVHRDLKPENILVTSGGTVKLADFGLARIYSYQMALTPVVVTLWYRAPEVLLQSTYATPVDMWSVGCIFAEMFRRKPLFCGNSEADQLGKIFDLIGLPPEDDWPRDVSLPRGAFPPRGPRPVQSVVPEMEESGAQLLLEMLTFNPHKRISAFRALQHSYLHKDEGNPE
UniProt Q00535, whole entry, looked up: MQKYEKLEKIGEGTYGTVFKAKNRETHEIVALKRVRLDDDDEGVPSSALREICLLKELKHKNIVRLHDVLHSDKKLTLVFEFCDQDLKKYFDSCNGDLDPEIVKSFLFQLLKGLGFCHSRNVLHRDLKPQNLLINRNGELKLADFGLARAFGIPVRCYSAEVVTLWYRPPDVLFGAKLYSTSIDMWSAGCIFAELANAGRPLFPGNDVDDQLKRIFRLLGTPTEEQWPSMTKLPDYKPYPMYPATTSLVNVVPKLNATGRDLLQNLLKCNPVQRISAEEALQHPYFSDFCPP
UniProt Q00534, whole entry: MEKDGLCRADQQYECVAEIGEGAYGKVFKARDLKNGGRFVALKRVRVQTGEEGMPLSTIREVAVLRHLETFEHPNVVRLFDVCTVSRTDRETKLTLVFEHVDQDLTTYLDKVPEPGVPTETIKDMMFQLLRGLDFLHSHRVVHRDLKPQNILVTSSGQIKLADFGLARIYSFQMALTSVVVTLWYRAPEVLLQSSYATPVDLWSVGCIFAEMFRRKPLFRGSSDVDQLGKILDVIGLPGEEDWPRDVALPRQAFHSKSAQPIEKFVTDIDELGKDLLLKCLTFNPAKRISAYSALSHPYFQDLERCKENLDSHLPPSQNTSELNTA

Structure (SMILES) | kinase-Nluc reporter destabilization hit call (ABL1) | kinase-Nluc reporter destabilization hit call (AKT1) | kinase-Nluc reporter destabilization hit call (ALK) | kinase-Nluc reporter destabilization hit call (ARAF) | kinase-Nluc reporter destabilization hit call (AURKA) | kinase-Nluc reporter destabilization hit call (AURKB) | kinase-Nluc reporter destabilization hit call (AURKC) | kinase-Nluc reporter destabilization hit call (BLK) | kinase-Nluc reporter destabilization hit call (BMX) | kinase-Nluc reporter destabilization hit call (BRAF) | kinase-Nluc reporter destabilization hit call (BRAF_V600E) | kinase-Nluc reporter destabilization hit call (BTK) | kinase-Nluc reporter destabilization hit call (CAMK2A) | kinase-Nluc reporter destabilization hit call (CAMK2G) | kinase-Nluc reporter destabilization hit call (CDK10) | kinase-Nluc reporter destabilization hit call (CDK2) | kinase-Nluc reporter destabilization hit call (CDK3) | kinase-Nluc reporter destabilization hit call (CDK4) | kinase-Nluc reporter destabilization hit call (CDK5) | kinase-Nluc reporter destabilization hit call (CDK6)
COc1ccc(Cn2cc(C(=O)N=Nc3c(O)[nH]c4c(C)cccc34)nn2)cc1 [MARK4 inhibitor 1] (10 µM) | inactive: 0 | inactive: 0 | inactive: 0 | inactive: 0 | inactive: 0 | inactive: 0 | inactive: 0 | inactive: 0 | inactive: 0 | inactive: 0 | inactive: 0 | inactive: 0 | inactive: 0 | inactive: 0 | inactive: 0 | inactive: 0 | inactive: 0 | inactive: 0 | inactive: 0 | inactive: 0
Nc1ncnc2c1c(-c1ccc(Oc3ccccc3)cc1)nn2C1CCCNC1 (racemic) (2.5 µM) | inactive: 0 | inactive: 0 | inactive: 0 | inactive: 0 | inactive: 0 | inactive: 0 | inactive: 0 | inactive: 0 | inactive: 0 | inactive: 0 | inactive: 0 | inactive: 0 | inactive: 0 | inactive: 0 | inactive: 0 | inactive: 0 | inactive: 0 | inactive: 0 | inactive: 0 | inactive: 0
c1cn2cc(-c3ccc4cn[nH]c4c3)nc(Nc3ccc(N4CCOCC4)cc3)c2n1 [Entospletinib] (10 µM) | inactive: 0 | inactive: 0 | inactive: 0 | inactive: 0 | inactive: 0 | inactive: 0 | inactive: 0 | inactive: 0 | inactive: 0 | inactive: 0 | inactive: 0 | inactive: 0 | inactive: 0 | inactive: 0 | inactive: 0 | inactive: 0 | inactive: 0 | inactive: 0 | inactive: 0 | inactive: 0
Cn1c(=O)c(F)c(Nc2ccc(I)cc2F)c2c(=O)n(C[C@@H](O)CO)cnc21 (10 µM) | inactive: 0 | inactive: 0 | inactive: 0 | inactive: 0 | inactive: 0 | inactive: 0 | inactive: 0 | inactive: 0 | inactive: 0 | inactive: 0 | inactive: 0 | inactive: 0 | inactive: 0 | inactive: 0 | inactive: 0 | inactive: 0 | inactive: 0 | inactive: 0 | inactive: 0 | inactive: 0
NC1(Cc2ccc(Cl)cc2)CCN(c2ncnc3[nH]ccc23)CC1 (10 µM) | inactive: 0 | inactive: 0 | inactive: 0 | inactive: 0 | inactive: 0 | inactive: 0 | inactive: 0 | inactive: 0 | inactive: 0 | inactive: 0 | inactive: 0 | inactive: 0 | inactive: 0 | inactive: 0 | inactive: 0 | inactive: 0 | inactive: 0 | inactive: 0 | inactive: 0 | inactive: 0
CC(C)(NS(=O)(=O)c1ccc2c(Cl)cnc(N=C(N)N)c2c1)C(=O)O (10 µM) | inactive: 0 | inactive: 0 | inactive: 0 | inactive: 0 | inactive: 0 | inactive: 0 | inactive: 0 | inactive: 0 | inactive: 0 | inactive: 0 | inactive: 0 | inactive: 0 | inactive: 0 | inactive: 0 | inactive: 0 | inactive: 0 | inactive: 0 | inactive: 0 | inactive: 0 | inactive: 0
COc1ccc(C(=O)Nc2sc3c(c2C(N)=O)CCCC3)cc1OC (10 µM) | inactive: 0 | inactive: 0 | inactive: 0 | inactive: 0 | inactive: 0 | inactive: 0 | inactive: 0 | inactive: 0 | inactive: 0 | inactive: 0 | inactive: 0 | inactive: 0 | inactive: 0 | inactive: 0 | inactive: 0 | inactive: 0 | inactive: 0 | inactive: 0 | inactive: 0 | inactive: 0
C[C@]1(O)CCC[C@@H]1n1c(=O)c(C(F)F)cc2cnc(NC3CCN(S(C)(=O)=O)CC3)nc21 (10 µM) | inactive: 0 | inactive: 0 | inactive: 0 | inactive: 0 | inactive: 0 | inactive: 0 | inactive: 0 | inactive: 0 | inactive: 0 | inactive: 0 | inactive: 0 | inactive: 0 | inactive: 0 | inactive: 0 | inactive: 0 | inactive: 0 | inactive: 0 | inactive: 0 | inactive: 0 | inactive: 0
Cc1ccc(NC(=S)NNc2c([N+](=O)[O-])cc(C(F)(F)F)cc2[N+](=O)[O-])cc1Cl (10 µM) | inactive: 0 | inactive: 0 | inactive: 0 | inactive: 0 | inactive: 0 | inactive: 0 | inactive: 0 | inactive: 0 | inactive: 0 | inactive: 0 | inactive: 0 | inactive: 0 | inactive: 0 | inactive: 0 | inactive: 0 | inactive: 0 | inactive: 0 | inactive: 0 | inactive: 0 | inactive: 0
Cc1ccc(-c2c(C(=O)CCl)n(CCCO)c3ncnc(N)c23)cc1 (10 µM) | inactive: 0 | inactive: 0 | inactive: 0 | inactive: 0 | inactive: 0 | active: 1 | inactive: 0 | inactive: 0 | inactive: 0 | inactive: 0 | inactive: 0 | inactive: 0 | inactive: 0 | inactive: 0 | inactive: 0 | inactive: 0 | inactive: 0 | inactive: 0 | inactive: 0 | inactive: 0
Nc1ncnc2c1c(-c1ccc(Oc3ccccc3)cc1)nn2C1CCNCC1 [N-piperidine Ibrutinib (hydrochloride)] (10 µM) | inactive: 0 | inactive: 0 | inactive: 0 | inactive: 0 | inactive: 0 | inactive: 0 | inactive: 0 | inactive: 0 | inactive: 0 | inactive: 0 | inactive: 0 | inactive: 0 | inactive: 0 | inactive: 0 | inactive: 0 | inactive: 0 | inactive: 0 | inactive: 0 | inactive: 0 | inactive: 0
Nc1ncc(-c2cccc(N3CCNCC3)c2)cc1C(=O)Nc1ccncc1 [PKC-iota inhibitor 1] (10 µM) | inactive: 0 | inactive: 0 | inactive: 0 | inactive: 0 | inactive: 0 | inactive: 0 | inactive: 0 | inactive: 0 | inactive: 0 | inactive: 0 | inactive: 0 | inactive: 0 | inactive: 0 | inactive: 0 | inactive: 0 | inactive: 0 | inactive: 0 | inactive: 0 | inactive: 0 | inactive: 0
O=C(/C=C/c1ccc(O[C@@H]2O[C@H](CO)[C@@H](O)[C@H](O)[C@H]2O[C@@H]2OC[C@](O)(CO)[C@H]2O)cc1)c1ccc(O)cc1O [Isoliquiritin apioside] (10 µM) | inactive: 0 | inactive: 0 | inactive: 0 | inactive: 0 | inactive: 0 | inactive: 0 | inactive: 0 | inactive: 0 | inactive: 0 | inactive: 0 | inactive: 0 | inactive: 0 | inactive: 0 | inactive: 0 | inactive: 0 | inactive: 0 | inactive: 0 | inactive: 0 | inactive: 0 | inactive: 0
COc1ccc(Cl)cc1NC(=O)Nc1cc(C)nc2ccccc12 (2.5 µM) | inactive: 0 | inactive: 0 | inactive: 0 | inactive: 0 | inactive: 0 | inactive: 0 | inactive: 0 | inactive: 0 | inactive: 0 | inactive: 0 | inactive: 0 | inactive: 0 | inactive: 0 | inactive: 0 | inactive: 0 | inactive: 0 | inactive: 0 | inactive: 0 | inactive: 0 | inactive: 0
COc1cccc(-n2c(=O)[nH]c3cc(Cl)n(-c4ccc(-c5cccc(OC)c5O)cc4)c3c2=O)c1 (2.5 µM) | inactive: 0 | inactive: 0 | inactive: 0 | inactive: 0 | inactive: 0 | inactive: 0 | inactive: 0 | inactive: 0 | inactive: 0 | inactive: 0 | inactive: 0 | inactive: 0 | inactive: 0 | inactive: 0 | inactive: 0 | inactive: 0 | inactive: 0 | inactive: 0 | inactive: 0 | inactive: 0
COc1ccc([C@H]2c3[nH]c4ccc(Cl)cc4c3CCN2C(=O)Oc2ccc(Cl)cc2)cc1 (2.5 µM) | inactive: 0 | inactive: 0 | inactive: 0 | inactive: 0 | inactive: 0 | inactive: 0 | inactive: 0 | inactive: 0 | inactive: 0 | inactive: 0 | inactive: 0 | inactive: 0 | inactive: 0 | inactive: 0 | inactive: 0 | inactive: 0 | inactive: 0 | inactive: 0 | inactive: 0 | inactive: 0
OC(COc1ccc(C(F)(F)F)cc1)CN(Cc1ccccc1)Cc1ccccc1 (stereo not given) (2.5 µM) | inactive: 0 | inactive: 0 | inactive: 0 | inactive: 0 | inactive: 0 | inactive: 0 | inactive: 0 | inactive: 0 | inactive: 0 | inactive: 0 | inactive: 0 | inactive: 0 | inactive: 0 | inactive: 0 | inactive: 0 | inactive: 0 | inactive: 0 | inactive: 0 | inactive: 0 | inactive: 0
Cc1noc(C)c1-c1ccc(-c2cc(C(N)=O)c(NC(N)=O)s2)c(O[C@H]2CCNC2)c1 (10 µM) | inactive: 0 | inactive: 0 | inactive: 0 | inactive: 0 | inactive: 0 | inactive: 0 | inactive: 0 | inactive: 0 | inactive: 0 | inactive: 0 | inactive: 0 | inactive: 0 | inactive: 0 | inactive: 0 | inactive: 0 | inactive: 0 | inactive: 0 | inactive: 0 | inactive: 0 | inactive: 0

Part of the list above, set out differently.
Structure (SMILES)	kinase-Nluc reporter destabilization hit call (ABL1)	kinase-Nluc reporter destabilization hit call (AKT1)	kinase-Nluc reporter destabilization hit call (ALK)	kinase-Nluc reporter destabilization hit call (ARAF)	kinase-Nluc reporter destabilization hit call (AURKA)	kinase-Nluc reporter destabilization hit call (AURKB)	kinase-Nluc reporter destabilization hit call (AURKC)	kinase-Nluc reporter destabilization hit call (BLK)	kinase-Nluc reporter destabilization hit call (BMX)	kinase-Nluc reporter destabilization hit call (BRAF)	kinase-Nluc reporter destabilization hit call (BRAF_V600E)	kinase-Nluc reporter destabilization hit call (BTK)	kinase-Nluc reporter destabilization hit call (CAMK2A)	kinase-Nluc reporter destabilization hit call (CAMK2G)	kinase-Nluc reporter destabilization hit call (CDK10)	kinase-Nluc reporter destabilization hit call (CDK2)	kinase-Nluc reporter destabilization hit call (CDK3)	kinase-Nluc reporter destabilization hit call (CDK4)	kinase-Nluc reporter destabilization hit call (CDK5)	kinase-Nluc reporter destabilization hit call (CDK6)
Cn1c(=O)c(F)c(Nc2ccc(I)cc2F)c2c(=O)n(C[C@@H](O)CO)cnc21 (10 µM)	inactive: 0	inactive: 0	inactive: 0	inactive: 0	inactive: 0	inactive: 0	inactive: 0	inactive: 0	inactive: 0	inactive: 0	inactive: 0	inactive: 0	inactive: 0	inactive: 0	inactive: 0	inactive: 0	inactive: 0	inactive: 0	inactive: 0	inactive: 0
NC1(Cc2ccc(Cl)cc2)CCN(c2ncnc3[nH]ccc23)CC1 (10 µM)	inactive: 0	inactive: 0	inactive: 0	inactive: 0	inactive: 0	inactive: 0	inactive: 0	inactive: 0	inactive: 0	inactive: 0	inactive: 0	inactive: 0	inactive: 0	inactive: 0	inactive: 0	inactive: 0	inactive: 0	inactive: 0	inactive: 0	inactive: 0
CC(C)(NS(=O)(=O)c1ccc2c(Cl)cnc(N=C(N)N)c2c1)C(=O)O (10 µM)	inactive: 0	inactive: 0	inactive: 0	inactive: 0	inactive: 0	inactive: 0	inactive: 0	inactive: 0	inactive: 0	inactive: 0	inactive: 0	inactive: 0	inactive: 0	inactive: 0	inactive: 0	inactive: 0	inactive: 0	inactive: 0	inactive: 0	inactive: 0
COc1ccc(C(=O)Nc2sc3c(c2C(N)=O)CCCC3)cc1OC (10 µM)	inactive: 0	inactive: 0	inactive: 0	inactive: 0	inactive: 0	inactive: 0	inactive: 0	inactive: 0	inactive: 0	inactive: 0	inactive: 0	inactive: 0	inactive: 0	inactive: 0	inactive: 0	inactive: 0	inactive: 0	inactive: 0	inactive: 0	inactive: 0
C[C@]1(O)CCC[C@@H]1n1c(=O)c(C(F)F)cc2cnc(NC3CCN(S(C)(=O)=O)CC3)nc21 (10 µM)	inactive: 0	inactive: 0	inactive: 0	inactive: 0	inactive: 0	inactive: 0	inactive: 0	inactive: 0	inactive: 0	inactive: 0	inactive: 0	inactive: 0	inactive: 0	inactive: 0	inactive: 0	inactive: 0	inactive: 0	inactive: 0	inactive: 0	inactive: 0

From the supplement of paper PMC12823440, “Inhibitors supercharge kinase turnover through native proteolytic circuits” (Nature, 2025)
